# Measured values as given in paper PMC8671480.
# Target: T1, tumor necrosis factor receptor-associated protein 1 (TRAP1) (rat (endogenous in H9C2 and in rat heart tissue)) (UniProt Q5XHZ0)
# T1 sequence: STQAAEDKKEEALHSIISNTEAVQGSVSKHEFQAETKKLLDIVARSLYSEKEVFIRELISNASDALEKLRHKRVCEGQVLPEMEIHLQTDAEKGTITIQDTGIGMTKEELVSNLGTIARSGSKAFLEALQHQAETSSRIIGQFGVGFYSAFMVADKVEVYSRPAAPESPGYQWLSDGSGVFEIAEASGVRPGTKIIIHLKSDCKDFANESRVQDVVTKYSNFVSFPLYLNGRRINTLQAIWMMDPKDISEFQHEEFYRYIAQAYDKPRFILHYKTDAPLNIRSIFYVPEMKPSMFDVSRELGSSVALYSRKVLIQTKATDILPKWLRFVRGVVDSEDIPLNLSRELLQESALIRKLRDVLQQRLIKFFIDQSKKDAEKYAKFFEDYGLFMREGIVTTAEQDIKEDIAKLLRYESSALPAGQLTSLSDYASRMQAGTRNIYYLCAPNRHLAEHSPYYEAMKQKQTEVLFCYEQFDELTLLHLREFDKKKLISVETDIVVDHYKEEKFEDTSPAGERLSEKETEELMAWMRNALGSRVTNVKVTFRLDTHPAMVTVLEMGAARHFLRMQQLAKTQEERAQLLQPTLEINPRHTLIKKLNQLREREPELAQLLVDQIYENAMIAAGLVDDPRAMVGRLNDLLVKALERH
# Assay: co-IP; H9C2 lysate (500 μg total protein) with anti-TRAP1 or anti-MIC60 on protein A/G magnetic beads, 4 °C, 6 h, washed with PBST (PBS, 0.5% Triton X-100); Western blot
substance,measurement,value
VDAC (rat (endogenous in H9C2)),binding,no binding

# No constants are given. Whether binding was seen depends on the method and setting. In cells and extracts the contact can be indirect.
